Laboratory results: publication PMC10943084
These are yes or no findings as the source states them, for the method shown. Binding calls can cover weak binding; strength is not graded here.

Amino acid sequences for entries named in this document (tags omitted). A change or cut given only in a name is not applied to a line headed by its entry.
UniProt K4BE38: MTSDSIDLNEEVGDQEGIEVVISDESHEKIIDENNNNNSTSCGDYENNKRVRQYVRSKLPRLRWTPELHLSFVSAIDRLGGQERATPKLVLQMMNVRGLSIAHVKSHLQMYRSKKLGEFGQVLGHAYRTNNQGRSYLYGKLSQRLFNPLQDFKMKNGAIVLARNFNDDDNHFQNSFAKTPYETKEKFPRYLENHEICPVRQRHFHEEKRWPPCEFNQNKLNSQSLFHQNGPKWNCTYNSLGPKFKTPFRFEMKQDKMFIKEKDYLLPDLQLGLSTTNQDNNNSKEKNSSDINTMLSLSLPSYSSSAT
UniProt A0A3Q7F340: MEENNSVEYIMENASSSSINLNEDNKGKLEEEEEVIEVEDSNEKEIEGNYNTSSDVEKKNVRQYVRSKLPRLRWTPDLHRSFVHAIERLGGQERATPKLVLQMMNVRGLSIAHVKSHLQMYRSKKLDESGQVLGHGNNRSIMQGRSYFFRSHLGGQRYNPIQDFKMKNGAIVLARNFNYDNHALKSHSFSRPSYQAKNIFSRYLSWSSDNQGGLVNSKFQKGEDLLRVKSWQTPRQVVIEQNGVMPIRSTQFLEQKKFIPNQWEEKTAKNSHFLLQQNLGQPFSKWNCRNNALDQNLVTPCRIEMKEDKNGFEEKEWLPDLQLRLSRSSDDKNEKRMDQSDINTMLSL

Legend:
[1] = molecular target: GST-TPL2 (tomato (Solanum lycopersicum)); assay: pull-down; GST fusion protein held on GST MAGIC beads, incubated with His fusion protein for 2.5 h at 4 °C; 50 mM HEPES pH 7.5, 50 mM NaCl, 10 mM EDTA, 0.2% Triton X-100; blot with anti-His and anti-GST; both purified
[2] = molecular target: GCR2 (GLAND CELL REPRESSOR 2, yeast two-hybrid fusion) (tomato (Solanum lycopersicum)) (UniProt K4BE38); assay: two-hybrid; Matchmaker GAL4 system; pairwise, pGBKT7 bait and pGADT7 prey co-transformed into yeast AH109; three dilutions on SD/-Ade/-His/-Leu/-Trp for four days
[3] = molecular target: BD-GCR1 (GLAND CELL REPRESSOR 1, yeast two-hybrid fusion) (tomato (Solanum lycopersicum)); assay: as above

binding [1] | binding [2] | binding [3] | Substance
binds |  |  | His-GCR1 (from UniProt A0A3Q7F340)
binds |  |  | His-GCR2 (from UniProt K4BE38)
 | binds weakly | binds weakly | SlTPL4 (yeast two-hybrid fusion) (from UniProt A0A3Q7FRL5)
